Measured values as given in US20160030407A1, “Method of Treating Inflammatory Lung Disease” (priority 2010, published 2016).
“And” between values parts separate entries of the source, which are not always exact repeats. Equal values may be shown once. The source gives many values for each of these; only a part stands here.

Test: Plasma toxicokinetics after single i.v. bolus
Type: in vivo, Sprague-Dawley rats
Conditions: for Concentration in rat plasma: Anatabine 0.1 mg/kg dose group, individual rats; for Avg. Conc. (Combined Male and Female) / Avg. Conc. (Male or Female): Rat Plasma
Method: Six rats (3 males and 3 females) were dosed per dose group. […] Plasma and brain homogenates were stored at −80° C. until analysis.
An additional 48 rats (24 males and 24 females) received a single intravenous dose via the tail vein at the same doses as mentioned above. At 30 and 360 minutes post administration, 6 rats (3 males and 3 females) per dose group, per time point were euthanized, bled via cardiac puncture, and perfused, and brains were collected. The brains were homogenized. Blood was spun, and plasma was collected. Plasma and brain homogenate were stored at −80° C.
Four aliquots of each dose level formulation were collected and stored at −80° C. The test compound, corresponding dose level, number of animals, and sample collection times for Phase I of the study are shown in Table 3. The test compound, corresponding dose level, number of animals, and sample collection times for Phase II of the study are shown in Table 4. The physical signs of each animal were monitored following administration of the test compound.
The animals were weighed prior to dosing and received a single i.v. dose of either test compound at a volume of 5 mL/kg. Blood was collected via the venus plexus (retro-orbital) into tubes containing (K2) EDTA. No more than 0.5 mL was collected per time point. […] The brain was removed, weighed, homogenized in sterile 0.9% saline at a volume equal to its weight, and stored at −80° C.
Plasma was separated according to the instructions for MICROTAINER® brand collection tubes (3 minutes, 2000×g). Plasma was decanted into microfuge tubes and stored at −80° C. Remaining test compound was stored at −80° C.
The amount of the test agent in the supernatant was determined by liquid chromatography tandem mass spectrometry (LC/MS/MS).
Analysis. Samples were analyzed by LC/MS/MS using an Agilent 6410 mass spectrometer coupled with an Agilent 1200 high pressure liquid chromatography (HPLC) and a CTC PAL chilled autosampler, all controlled by MassHunter software (Agilent). After separation on a hydrophilic interaction liquid chromatography (HILIC) HPLC column (Sepax) using an acetonitrile-ammonium acetate/acetic acid gradient system, peaks were analyzed by mass spectrometry (MS) using ESI ionization in multiple reaction monitoring (MRM) mode. MassHunter software was used to calculate the concentration of the test compounds in samples from the peak area using the appropriate calibration curves.

C1=CCC(c2cccnc2)NC1 (racemic) [Anatabine, 1,2,3,6-tetrahydro-[2,3′]bipyridinyl]
Concentration in rat plasma (time point 0.5 hr): 16 ng/mL (2×) and 17 ng/mL and 13 ng/mL (2×) and 30 ng/mL (2×) and 32 ng/mL and 33 ng/mL and 31 ng/mL and 34 ng/mL and 10 ng/mL | Concentration in rat plasma (time point 1 hr): 10 ng/mL and 16 ng/mL and 11 ng/mL and 12 ng/mL (2×) and 9 ng/mL | Concentration in rat plasma (time point 2 hr): 6 ng/mL and 8 ng/mL (3×) and 5 ng/mL and 4 ng/mL | Concentration in rat plasma (time point 4 hr): 3 ng/mL (3×) and 5 ng/mL | Concentration in rat plasma (time point 6 hr): 7 ng/mL and 4 ng/mL (4×) and 3 ng/mL | Avg. Conc. (Combined Male and Female) (Anatabine 0.1 mg/kg, 0.5 hr (1st line), n = 12): 22.9 ng/mL | Avg. Conc. (Combined Male and Female) (Anatabine 0.1 mg/kg, 0.5 hr (2nd line), n = 6): 31.7 ng/mL | Avg. Conc. (Combined Male and Female) (Anatabine 0.1 mg/kg, 1 hr): 8.0 ng/mL | Avg. Conc. (Combined Male and Female) (Anatabine 0.1 mg/kg, 2 hr): 8.7 ng/mL | Avg. Conc. (Combined Male and Female) (Anatabine 0.1 mg/kg, 4 hr): 5.2 ng/mL | Avg. Conc. (Combined Male and Female) (Anatabine 0.1 mg/kg, 6 hr (1st line), n = 6): 4.3 ng/mL | Avg. Conc. (Combined Male and Female) (Anatabine 0.1 mg/kg, 6 hr (2nd line), n = 4): 4.5 ng/mL | Avg. Conc. (Male or Female) (Anatabine 0.1 mg/kg, female, 0.5 hr (1st line)): 13.0 ng/mL | Avg. Conc. (Male or Female) (Anatabine 0.1 mg/kg, female, 0.5 hr (2nd line)): 31.7 ng/mL | Avg. Conc. (Male or Female) (Anatabine 0.1 mg/kg, female, 1 hr): 11.0 ng/mL | Avg. Conc. (Male or Female) (Anatabine 0.1 mg/kg, female, 2 hr): 6.7 ng/mL | Avg. Conc. (Male or Female) (Anatabine 0.1 mg/kg, female, 4 hr): 4.0 ng/mL | Avg. Conc. (Male or Female) (Anatabine 0.1 mg/kg, female, 6 hr (1st line, N = 3, printed after 0.5 hr)): 3.7 ng/mL | Avg. Conc. (Male or Female) (Anatabine 0.1 mg/kg, female, 6 hr (2nd line, N = 1)): 3.0 ng/mL | Avg. Conc. (Male or Female) (Anatabine 0.1 mg/kg, male, 0.5 hr (1st line)): 15.3 ng/mL | Avg. Conc. (Male or Female) (Anatabine 0.1 mg/kg, male, 0.5 hr (2nd line)): 31.7 ng/mL | Avg. Conc. (Male or Female) (Anatabine 0.1 mg/kg, male, 1 hr): 12.3 ng/mL | Avg. Conc. (Male or Female) (Anatabine 0.1 mg/kg, male, 2 hr): 6.3 ng/mL | Avg. Conc. (Male or Female) (Anatabine 0.1 mg/kg, male, 4 hr): 3.0 ng/mL | Avg. Conc. (Male or Female) (Anatabine 0.1 mg/kg, male, 6 hr (2nd line)): 5.0 ng/mL | Avg. Conc. (Combined Male and Female) (Anatabine 0.75 mg/kg, 0.5 hr (2nd line), n = 6): 327.8 ng/mL | Avg. Conc. (Combined Male and Female) (Anatabine 0.75 mg/kg, 1 hr): 162.2 ng/mL | Avg. Conc. (Combined Male and Female) (Anatabine 0.75 mg/kg, 2 hr): 91.7 ng/mL | Avg. Conc. (Combined Male and Female) (Anatabine 0.75 mg/kg, 4 hr): 40.0 ng/mL | Avg. Conc. (Combined Male and Female) (Anatabine 0.75 mg/kg, 6 hr (1st line), n = 12): 19.3 ng/mL | Avg. Conc. (Combined Male and Female) (Anatabine 0.75 mg/kg, 6 hr (2nd line), n = 6): 22.5 ng/mL | Avg. Conc. (Combined Male and Female) (Anatabine 0.75 mg/kg, 8 hr): 10.0 ng/mL | Avg. Conc. (Male or Female) (Anatabine 0.75 mg/kg, female, 0.5 hr (1st line)): 190.0 ng/mL | Avg. Conc. (Male or Female) (Anatabine 0.75 mg/kg, female, 0.5 hr (2nd line)): 354.0 ng/mL | Avg. Conc. (Male or Female) (Anatabine 0.75 mg/kg, female, 1 hr): 172.7 ng/mL | Avg. Conc. (Male or Female) (Anatabine 0.75 mg/kg, female, 2 hr): 99.7 ng/mL | Avg. Conc. (Male or Female) (Anatabine 0.75 mg/kg, female, 4 hr): 45.3 ng/mL | Avg. Conc. (Male or Female) (Anatabine 0.75 mg/kg, female, 6 hr (1st line)): 18.3 ng/mL | Avg. Conc. (Male or Female) (Anatabine 0.75 mg/kg, female, 6 hr (2nd line)): 23.0 ng/mL | Avg. Conc. (Male or Female) (Anatabine 0.75 mg/kg, female, 8 hr): 11.0 ng/mL | Avg. Conc. (Male or Female) (Anatabine 0.75 mg/kg, male, 0.5 hr (1st line)): 180.7 ng/mL | Avg. Conc. (Male or Female) (Anatabine 0.75 mg/kg, male, 0.5 hr (2nd line)): 301.7 ng/mL | Avg. Conc. (Male or Female) (Anatabine 0.75 mg/kg, male, 1 hr): 151.7 ng/mL | Avg. Conc. (Male or Female) (Anatabine 0.75 mg/kg, male, 2 hr): 83.7 ng/mL | Avg. Conc. (Male or Female) (Anatabine 0.75 mg/kg, male, 4 hr): 34.7 ng/mL | Avg. Conc. (Male or Female) (Anatabine 0.75 mg/kg, male, 6 hr (1st line)): 14.0 ng/mL | Avg. Conc. (Male or Female) (Anatabine 0.75 mg/kg, male, 6 hr (2nd line)): 22.0 ng/mL | Avg. Conc. (Male or Female) (Anatabine 0.75 mg/kg, male, 8 hr): 9.0 ng/mL | Avg. Conc. (Combined Male and Female) (Anatabine 1.0 mg/kg, 0.5 hr (1st line), n = 12): 319.1 ng/mL | Avg. Conc. (Combined Male and Female) (Anatabine 1.0 mg/kg, 0.5 hr (2nd line), n = 6): 383.5 ng/mL | Avg. Conc. (Combined Male and Female) (Anatabine 1.0 mg/kg, 1 hr): 231.3 ng/mL | Avg. Conc. (Combined Male and Female) (Anatabine 1.0 mg/kg, 2 hr): 143.3 ng/mL | Avg. Conc. (Combined Male and Female) (Anatabine 1.0 mg/kg, 4 hr): 51.5 ng/mL | Avg. Conc. (Combined Male and Female) (Anatabine 1.0 mg/kg, 6 hr (1st line), n = 12): 24.3 ng/mL | Avg. Conc. (Combined Male and Female) (Anatabine 1.0 mg/kg, 6 hr (2nd line), n = 6): 25.0 ng/mL | Avg. Conc. (Male or Female) (Anatabine 1.0 mg/kg, female, 0.5 hr (1st line)): 237.0 ng/mL
